ChEMBL document CHEMBL5518189, “Design, synthesis and biological evaluation of 1,2,3-triazole benzothiazole derivatives as tubulin polymerization inhibitors with potent anti-esophageal cancer activities” (Eur J Med Chem, 2024)

System: HCT-116
Test: Antiproliferative activity against human HCT-116 cells assessed as inhibition of cell growth measured after 48 hrs by CCK8 method
Assay type: functional, cell-based
Conditions: HCT-116, 48 h

COc1cc2c(c(OC)c1OC)-c1ccc(OC)c(=O)cc1[C@@H](NC(C)=O)CC2 [COLCHICINE]
IC50: 39 nM
